Laboratory results: PubChem BioAssay AID1159598 (NIAID, 2016)
Assay: 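Knock-downs that alter flagellin-driven TNF reporter signal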. Cell system: human THP-1 B5 reporter cells made macrophage-like with PMA. Knock-down reagent: single siRNA against human genes. Timing: reporter read 48 to 72 hours after siRNA transfection. Treatment: flagellin stimulation for 4 hours, dose not given. Measured: 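Firefly to renilla ratio from a TNF promoter reporter after 4 h flagellin, as robust z against negative controls averaged across replicates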. Scale: TNF reporter z-score: higher = stronger TNF promoter activity than controls. Call rule: 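Active means the mean reporter z is about 1.5 or more, or about -1.5 or less; values closer to zero are inactive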. Calls: active = reporter shifted beyond 1.5 z, up or down; inactive = reporter within 1.5 z of controls.
In all, the deposit lists 756 reagents; this is an unselected part. Over the whole deposit, 142 (19%) are marked active. 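Active includes both higher and lower reporter signal; each gene has six separate siRNAs, and no gene-level summary is deposited.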 The numbers tell different reagents against one gene apart. No sequences are given here. Not stated in the record: the amount of reagent.

{"target gene": "MAP3K1", "reagent no.": 1, "TNF reporter z-score": -0.621, "call": "inactive"}
{"target gene": "MAP3K1", "reagent no.": 2, "TNF reporter z-score": -1.63, "call": "active"}
{"target gene": "MAP3K1", "reagent no.": 3, "TNF reporter z-score": -0.505, "call": "inactive"}
{"target gene": "MAP3K1", "reagent no.": 4, "TNF reporter z-score": -2.35, "call": "active"}
{"target gene": "MAP3K1", "reagent no.": 5, "TNF reporter z-score": -0.885, "call": "inactive"}
{"target gene": "MAP3K1", "reagent no.": 6, "TNF reporter z-score": -0.752, "call": "inactive"}
{"target gene": "CD14", "reagent no.": 1, "TNF reporter z-score": 0.67, "call": "inactive"}
{"target gene": "CD14", "reagent no.": 2, "TNF reporter z-score": -0.223, "call": "inactive"}
{"target gene": "CD14", "reagent no.": 3, "TNF reporter z-score": 0.869, "call": "inactive"}
{"target gene": "CD14", "reagent no.": 4, "TNF reporter z-score": 0.134, "call": "inactive"}
{"target gene": "CD14", "reagent no.": 5, "TNF reporter z-score": 0.337, "call": "inactive"}
{"target gene": "CD14", "reagent no.": 6, "TNF reporter z-score": -0.488, "call": "inactive"}

Laid out differently: results already given.
target gene,reagent no.,TNF reporter z-score,call
MAP3K1,4,-2.35,active
MAP3K1,5,-0.885,inactive

Further entries:
{"target gene": "PIK3CD", "reagent no.": 1, "TNF reporter z-score": -1.4, "call": "inactive"}
{"target gene": "PIK3CD", "reagent no.": 2, "TNF reporter z-score": -0.687, "call": "inactive"}
{"target gene": "PIK3CD", "reagent no.": 3, "TNF reporter z-score": 0.651, "call": "inactive"}
{"target gene": "PIK3CD", "reagent no.": 4, "TNF reporter z-score": -1.73, "call": "active"}
{"target gene": "PIK3CD", "reagent no.": 5, "TNF reporter z-score": 0.952, "call": "inactive"}
{"target gene": "PIK3CD", "reagent no.": 6, "TNF reporter z-score": -1.41, "call": "inactive"}
{"target gene": "PTPN6", "reagent no.": 1, "TNF reporter z-score": -1.12, "call": "inactive"}
{"target gene": "PTPN6", "reagent no.": 2, "TNF reporter z-score": 0.242, "call": "inactive"}
{"target gene": "PTPN6", "reagent no.": 3, "TNF reporter z-score": 0.139, "call": "inactive"}
{"target gene": "PTPN6", "reagent no.": 4, "TNF reporter z-score": -1.69, "call": "active"}
{"target gene": "PTPN6", "reagent no.": 5, "TNF reporter z-score": -1.32, "call": "inactive"}
{"target gene": "PTPN6", "reagent no.": 6, "TNF reporter z-score": -0.954, "call": "inactive"}
